The list shows a part of the results.
Columns and labels:
Test in all cases: log2 fold change, soluble protein after heating vs DMSO (PISA); higher = thermal stabilisation; K562 cells, 10 uM, 30 min; active = over 0.2 and 3.5 SD of the protein, either way, in both replicates (recomputed)
[1] = compound: CC[C@@H]1C(=O)N(C)c2cnc(Nc3ccc(C(=O)NC4CCN(C)CC4)cc3OC)nc2N1C1CCCC1
Procedure, shortened: (§1)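 K562 cells at 2×10^6 cells/mL were treated for 30 min with 10 μM compound, and aliquots were heated for 3 min over 48°C-58°C before pooling. Extraction used PBS with 0.5% NP-40 at 4°C, and soluble protein was the supernatant after 21,000xg for 90 min, measured by TMTpro 16plex LC-MS/MS with channel sums equalised. Thermal stability values, relative to control samples and from duplicates, are log2 fold changes.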

Chains of the proteins cited; added tags and fusions are not shown. Lines headed by an entry give the natural chain unless they say otherwise; changes in a name come on top.
UniProt Q9NVH1: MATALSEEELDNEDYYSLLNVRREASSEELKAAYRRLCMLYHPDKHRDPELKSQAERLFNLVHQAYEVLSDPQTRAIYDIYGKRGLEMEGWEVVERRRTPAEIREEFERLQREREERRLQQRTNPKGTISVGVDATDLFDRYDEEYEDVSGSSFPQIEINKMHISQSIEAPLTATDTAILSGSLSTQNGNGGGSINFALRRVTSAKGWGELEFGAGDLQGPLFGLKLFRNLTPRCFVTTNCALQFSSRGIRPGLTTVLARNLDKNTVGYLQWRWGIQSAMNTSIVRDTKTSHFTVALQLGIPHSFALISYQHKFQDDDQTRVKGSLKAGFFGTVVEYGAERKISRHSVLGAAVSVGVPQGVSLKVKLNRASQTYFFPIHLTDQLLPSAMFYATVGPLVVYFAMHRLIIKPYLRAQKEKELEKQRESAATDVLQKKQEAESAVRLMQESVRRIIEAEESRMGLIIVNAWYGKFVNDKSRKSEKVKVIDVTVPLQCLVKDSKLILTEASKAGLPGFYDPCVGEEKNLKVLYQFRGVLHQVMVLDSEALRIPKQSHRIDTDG
UniProt O60869: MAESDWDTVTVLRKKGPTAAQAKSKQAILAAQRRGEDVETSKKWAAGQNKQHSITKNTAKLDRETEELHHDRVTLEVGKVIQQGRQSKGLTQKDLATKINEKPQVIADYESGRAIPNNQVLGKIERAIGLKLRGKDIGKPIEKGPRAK
UniProt Q9NZJ0: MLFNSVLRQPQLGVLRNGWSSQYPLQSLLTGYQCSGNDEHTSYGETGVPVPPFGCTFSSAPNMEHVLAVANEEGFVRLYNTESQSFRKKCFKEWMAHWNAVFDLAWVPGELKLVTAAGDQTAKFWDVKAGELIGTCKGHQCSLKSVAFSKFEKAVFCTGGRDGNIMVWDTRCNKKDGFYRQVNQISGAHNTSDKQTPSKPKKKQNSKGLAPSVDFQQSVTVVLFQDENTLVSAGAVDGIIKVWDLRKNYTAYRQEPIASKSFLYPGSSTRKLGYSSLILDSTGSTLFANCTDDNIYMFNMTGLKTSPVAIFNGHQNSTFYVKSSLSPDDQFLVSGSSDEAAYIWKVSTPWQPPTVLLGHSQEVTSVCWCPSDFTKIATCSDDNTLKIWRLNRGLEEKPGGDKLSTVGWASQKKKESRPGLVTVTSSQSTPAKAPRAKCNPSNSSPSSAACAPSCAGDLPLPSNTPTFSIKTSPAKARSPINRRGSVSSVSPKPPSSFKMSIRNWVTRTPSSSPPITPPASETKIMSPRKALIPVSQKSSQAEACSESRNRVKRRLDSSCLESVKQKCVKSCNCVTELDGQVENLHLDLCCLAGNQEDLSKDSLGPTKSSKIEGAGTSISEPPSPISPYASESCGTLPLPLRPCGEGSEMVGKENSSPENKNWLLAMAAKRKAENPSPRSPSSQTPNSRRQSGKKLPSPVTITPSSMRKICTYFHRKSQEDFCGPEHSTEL
UniProt Q9UKB3: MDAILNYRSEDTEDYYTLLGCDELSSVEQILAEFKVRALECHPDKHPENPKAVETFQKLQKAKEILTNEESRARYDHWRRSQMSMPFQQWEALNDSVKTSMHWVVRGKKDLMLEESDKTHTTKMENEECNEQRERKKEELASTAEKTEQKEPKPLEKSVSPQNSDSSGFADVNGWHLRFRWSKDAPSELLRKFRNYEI
UniProt O95905: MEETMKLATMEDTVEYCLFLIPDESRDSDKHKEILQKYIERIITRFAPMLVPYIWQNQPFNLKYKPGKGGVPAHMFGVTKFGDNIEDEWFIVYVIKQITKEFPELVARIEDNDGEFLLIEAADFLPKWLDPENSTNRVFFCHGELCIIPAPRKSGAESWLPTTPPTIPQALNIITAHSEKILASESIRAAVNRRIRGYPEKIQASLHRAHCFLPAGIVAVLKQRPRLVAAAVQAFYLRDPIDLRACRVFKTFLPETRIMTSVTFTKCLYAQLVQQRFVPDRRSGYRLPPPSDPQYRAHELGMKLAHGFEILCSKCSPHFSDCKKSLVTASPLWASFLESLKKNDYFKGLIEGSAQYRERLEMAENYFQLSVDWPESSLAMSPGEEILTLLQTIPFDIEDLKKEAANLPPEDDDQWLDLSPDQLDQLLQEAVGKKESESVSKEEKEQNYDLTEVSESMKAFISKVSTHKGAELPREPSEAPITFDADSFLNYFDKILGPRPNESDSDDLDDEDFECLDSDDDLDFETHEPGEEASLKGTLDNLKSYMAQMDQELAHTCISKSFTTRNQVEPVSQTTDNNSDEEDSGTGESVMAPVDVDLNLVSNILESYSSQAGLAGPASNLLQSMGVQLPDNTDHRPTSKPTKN
UniProt Q14919: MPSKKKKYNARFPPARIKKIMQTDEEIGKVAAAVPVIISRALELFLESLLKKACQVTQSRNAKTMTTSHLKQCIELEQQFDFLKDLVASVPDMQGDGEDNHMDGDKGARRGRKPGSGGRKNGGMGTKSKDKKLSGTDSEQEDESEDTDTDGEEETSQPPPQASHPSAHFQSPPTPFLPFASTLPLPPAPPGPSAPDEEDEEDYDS
UniProt Q5F1R6: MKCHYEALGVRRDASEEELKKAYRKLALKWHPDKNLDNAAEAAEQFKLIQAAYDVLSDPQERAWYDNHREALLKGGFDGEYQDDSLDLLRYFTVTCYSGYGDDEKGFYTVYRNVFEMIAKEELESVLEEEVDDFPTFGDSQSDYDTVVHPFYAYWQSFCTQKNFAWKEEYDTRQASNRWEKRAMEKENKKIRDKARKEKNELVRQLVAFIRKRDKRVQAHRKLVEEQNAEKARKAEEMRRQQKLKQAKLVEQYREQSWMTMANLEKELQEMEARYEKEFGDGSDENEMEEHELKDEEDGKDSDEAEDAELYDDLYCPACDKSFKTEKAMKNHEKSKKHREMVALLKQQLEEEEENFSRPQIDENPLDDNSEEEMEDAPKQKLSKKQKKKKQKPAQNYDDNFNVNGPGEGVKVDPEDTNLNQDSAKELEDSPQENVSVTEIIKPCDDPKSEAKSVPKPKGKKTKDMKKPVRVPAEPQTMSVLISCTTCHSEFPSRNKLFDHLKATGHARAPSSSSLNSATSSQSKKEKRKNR
UniProt Q5JSL3: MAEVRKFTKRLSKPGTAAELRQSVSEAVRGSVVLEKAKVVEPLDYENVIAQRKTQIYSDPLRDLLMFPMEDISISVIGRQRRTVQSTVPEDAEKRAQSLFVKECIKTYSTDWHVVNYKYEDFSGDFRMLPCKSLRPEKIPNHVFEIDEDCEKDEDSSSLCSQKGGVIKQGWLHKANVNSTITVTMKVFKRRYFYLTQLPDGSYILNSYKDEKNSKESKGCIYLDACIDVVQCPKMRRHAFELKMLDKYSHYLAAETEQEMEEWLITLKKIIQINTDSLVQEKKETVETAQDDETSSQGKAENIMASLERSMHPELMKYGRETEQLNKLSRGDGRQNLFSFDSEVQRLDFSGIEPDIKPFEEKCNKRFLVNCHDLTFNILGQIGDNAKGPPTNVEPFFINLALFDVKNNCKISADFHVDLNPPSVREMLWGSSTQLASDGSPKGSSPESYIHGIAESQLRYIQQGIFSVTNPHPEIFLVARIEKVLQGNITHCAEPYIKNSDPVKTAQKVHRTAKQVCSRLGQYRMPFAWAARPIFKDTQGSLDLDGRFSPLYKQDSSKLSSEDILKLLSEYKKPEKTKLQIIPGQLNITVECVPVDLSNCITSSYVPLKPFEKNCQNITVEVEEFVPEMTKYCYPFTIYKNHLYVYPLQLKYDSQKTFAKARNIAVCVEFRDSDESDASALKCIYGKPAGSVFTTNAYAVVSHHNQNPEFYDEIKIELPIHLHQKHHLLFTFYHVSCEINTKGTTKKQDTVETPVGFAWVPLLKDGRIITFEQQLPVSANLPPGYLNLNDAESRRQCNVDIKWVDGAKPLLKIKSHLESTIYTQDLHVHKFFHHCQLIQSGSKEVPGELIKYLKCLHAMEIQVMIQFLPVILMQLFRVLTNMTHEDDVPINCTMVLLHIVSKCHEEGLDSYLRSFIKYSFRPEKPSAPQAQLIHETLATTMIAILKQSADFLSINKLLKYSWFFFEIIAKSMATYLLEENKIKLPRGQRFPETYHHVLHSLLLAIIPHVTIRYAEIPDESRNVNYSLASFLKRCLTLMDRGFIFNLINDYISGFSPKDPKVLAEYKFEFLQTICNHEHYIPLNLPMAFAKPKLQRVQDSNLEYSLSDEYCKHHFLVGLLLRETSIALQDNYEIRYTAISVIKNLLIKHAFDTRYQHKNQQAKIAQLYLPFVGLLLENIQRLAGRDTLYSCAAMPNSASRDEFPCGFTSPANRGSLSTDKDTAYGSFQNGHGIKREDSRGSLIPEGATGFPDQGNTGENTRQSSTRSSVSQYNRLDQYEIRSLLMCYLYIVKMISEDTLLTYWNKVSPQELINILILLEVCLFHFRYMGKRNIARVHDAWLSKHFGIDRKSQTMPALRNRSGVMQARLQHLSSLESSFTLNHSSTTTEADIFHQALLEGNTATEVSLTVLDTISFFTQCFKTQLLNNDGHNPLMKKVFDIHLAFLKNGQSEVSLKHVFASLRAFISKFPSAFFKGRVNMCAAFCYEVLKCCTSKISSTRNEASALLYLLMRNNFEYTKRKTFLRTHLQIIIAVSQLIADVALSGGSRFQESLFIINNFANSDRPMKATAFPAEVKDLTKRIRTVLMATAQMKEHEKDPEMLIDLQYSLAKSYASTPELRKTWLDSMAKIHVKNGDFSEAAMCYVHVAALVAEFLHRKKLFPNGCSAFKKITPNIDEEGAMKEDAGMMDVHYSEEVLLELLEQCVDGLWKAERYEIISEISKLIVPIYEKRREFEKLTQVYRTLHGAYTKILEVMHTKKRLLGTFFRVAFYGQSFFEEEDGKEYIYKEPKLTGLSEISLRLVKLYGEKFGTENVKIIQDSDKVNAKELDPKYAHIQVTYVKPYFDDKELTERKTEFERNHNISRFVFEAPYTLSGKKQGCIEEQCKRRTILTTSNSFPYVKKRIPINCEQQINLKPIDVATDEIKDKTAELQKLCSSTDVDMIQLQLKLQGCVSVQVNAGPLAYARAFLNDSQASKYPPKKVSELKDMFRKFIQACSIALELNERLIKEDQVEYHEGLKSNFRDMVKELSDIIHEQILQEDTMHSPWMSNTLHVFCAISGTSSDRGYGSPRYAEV
UniProt Q9UBS4: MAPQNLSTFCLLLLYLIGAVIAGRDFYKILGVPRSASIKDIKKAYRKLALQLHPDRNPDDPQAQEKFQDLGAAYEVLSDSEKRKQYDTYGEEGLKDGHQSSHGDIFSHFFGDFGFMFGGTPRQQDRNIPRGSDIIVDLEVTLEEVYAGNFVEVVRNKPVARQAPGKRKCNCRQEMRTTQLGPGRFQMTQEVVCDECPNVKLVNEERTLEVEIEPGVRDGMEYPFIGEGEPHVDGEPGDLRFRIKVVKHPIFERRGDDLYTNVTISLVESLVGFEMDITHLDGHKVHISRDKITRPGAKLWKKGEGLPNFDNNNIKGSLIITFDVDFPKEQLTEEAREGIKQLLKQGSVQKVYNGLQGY
UniProt Q96FX2: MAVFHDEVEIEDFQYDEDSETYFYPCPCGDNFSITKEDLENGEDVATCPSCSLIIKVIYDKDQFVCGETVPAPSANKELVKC
UniProt Q9NP97, whole entry, looked up: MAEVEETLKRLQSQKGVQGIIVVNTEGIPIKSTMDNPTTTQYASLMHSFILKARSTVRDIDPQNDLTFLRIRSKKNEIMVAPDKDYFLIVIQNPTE
UniProt Q9BVJ7: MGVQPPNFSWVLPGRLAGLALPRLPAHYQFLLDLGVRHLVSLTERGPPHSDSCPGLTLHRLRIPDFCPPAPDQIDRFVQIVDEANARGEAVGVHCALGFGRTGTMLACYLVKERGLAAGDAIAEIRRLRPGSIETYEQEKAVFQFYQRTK
UniProt P55039: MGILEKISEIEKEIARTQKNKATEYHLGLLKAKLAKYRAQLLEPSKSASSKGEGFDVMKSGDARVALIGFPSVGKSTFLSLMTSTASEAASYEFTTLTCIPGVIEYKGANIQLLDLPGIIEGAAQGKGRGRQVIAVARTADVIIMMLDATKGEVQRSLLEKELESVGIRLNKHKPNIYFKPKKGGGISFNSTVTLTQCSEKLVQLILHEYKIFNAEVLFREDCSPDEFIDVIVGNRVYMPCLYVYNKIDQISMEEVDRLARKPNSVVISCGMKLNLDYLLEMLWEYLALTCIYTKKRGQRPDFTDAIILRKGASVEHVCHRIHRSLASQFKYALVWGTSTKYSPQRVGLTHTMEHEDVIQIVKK

[2] = compound: CC[C@@H]1C(=O)N(C)c2cnc(Nc3ccc(C(=O)N[C@H]4CC[C@H](N5CCN(CC6CC6)CC5)CC4)cc3OC)nc2N1C(C)C [volasertib]
Procedure, shortened: as §1

[3] = compound: CC[C@H](C)N1C=C(C2=C(C=C(C=C21)C3=CN=C(C=C3)N4CCNCC4)C(=O)NCC5=C(C=C(NC5=O)C)C)C
Procedure, shortened: as §1

[4] = compound: CC[C@H](C)[C@@H](C(=O)N[C@@H]([C@@H](C)O)C(=O)N[C@@H](CC(C)C)C(=O)[C@]1(CO1)C)NC(=O)[C@H]([C@@H](C)CC)N(C)C(=O)C [epoxomicin]
Procedure, shortened: as §1

[5] = compound: CCn1c(C(=O)N(C2CC2)C2CC2)cc2c3c(ncn3C)c(Nc3cc(C)n(C)n3)nc21
Procedure, shortened: as §1

[6] = compound: CCn1cc(-c2ccnc3[nH]c(-c4cccc(CN(C)C)c4)cc23)c(-c2ccc(NC(=O)N(C)C)cc2)n1
Procedure, shortened: as §1

[7] = compound: CN(C)CC(=O)Nc1ccc2[nH]c(=O)c3ccccc3c2c1
Procedure, shortened: as §1

[8] = compound: CN(CCOC1=CC=C(C=C1)C[C@H]2C(=O)NC(=O)S2)C3=CC=CC=N3 (racemic) [rosiglitazone]
Procedure, shortened: as §1

[9] = compound: CN1C2=C(C3=C1C(=O)N(N=C3)CC4=CC(=CC=C4)N)SC(=C2)S(=O)C
Procedure, shortened: as §1

[10] = compound: CN1CCC(CNc2ccc3ncc(-c4cccc(OC(F)(F)F)c4)n3n2)CC1
Procedure, shortened: as §1

[11] = compound: CN1CCN(CCOc2cc(OC3CCOCC3)c3c(Nc4c(Cl)ccc5c4OCO5)ncnc3c2)CC1 [saracatinib]
Procedure, shortened: as §1

[12] = compound: CN1CCN(c2nc(C3=C(c4c[nH]c5ccccc45)C(=O)NC3=O)c3ccccc3n2)CC1 [sotrastaurin]
Procedure, shortened: as §1

[13] = compound: CN1CC[C@H](c2c(O)cc(O)c3c(=O)cc(-c4ccccc4Cl)oc23)[C@H](O)C1 [alvocidib]
Procedure, shortened: as §1

[14] = compound: CN1CCc2c(c3ccccc3n2Cc2ccc(C(=O)NO)cc2)C1 [Tubastatin A]
Procedure, shortened: as §1

[15] = compound: CNC(=O)C1=CC=CC=C1NC2=NC(=NC=C2Cl)NC3=C(C=C(C=C3)N4CCOCC4)OC
Procedure, shortened: as §1

[16] = compound: CNC(=O)c1ccc(Nc2ncc(C(F)(F)F)c(NCc3nccnc3N(C)S(C)(=O)=O)n2)cc1 [defactinib]
Procedure, shortened: as §1

[17] = compound: CNCc1ccc(-c2[nH]c3cc(F)cc4c3c2CCNC4=O)cc1 [rucaparib]
Procedure, shortened: as §1

[18] = compound: CNc1nc(-c2ccc3c(N)n[nH]c3c2)cc(N2C[C@@H](C(=O)NC3CCCCC3)CC[C@H]2C)n1
Procedure, shortened: as §1

[19] = compound: COC(=O)N[C@@H](C)CNc1nccc(-c2cn(C(C)C)nc2-c2cc(Cl)cc(NS(C)(=O)=O)c2F)n1 [encorafenib]
Procedure, shortened: as §1

[20] = compound: COC(=O)[C@H](CCSC)NC(=O)C1=C(C=C(C=C1)NC[C@H](CS)N)C2=CC=CC=C2
Procedure, shortened: as §1

Measured: log2 fold change

DNAJC11 (UniProt Q9NVH1)
inactive: [1] -0.009 | [2] -0.099 | [3] 0.023 | [4] 0.028 | [5] -0.004 | [6] -0.061 | [7] 0.013 | [8] 0.02 | [9] -0.077 | [10] 0.021 | [11] -0.034 | [12] 0.027 | [13] 0.002 | [14] -0.028 | [15] 0.02 | [16] -0.036 | [17] -0.017 | [18] -0.017 | [19] -0.017 | [20] 0.019

EDF1 (UniProt O60869)
inactive: [1] -0.004 | [2] 0.087 | [3] -0.044 | [4] 0 | [5] 0.012 | [6] 0.026 | [7] -0.038 | [8] 0.016 | [9] -0.001 | [10] 0.013 | [11] 0.028 | [12] 0.048 | [13] -0.024 | [14] 0.016 | [15] -0.006 | [16] -0.021 | [17] -0.024 | [18] -0.028 | [19] -0.013 | [20] 0.037

DTL (UniProt Q9NZJ0)
inactive: [1] -0.096 | [2] -0.033 | [3] 0.049 | [4] -0.024 | [5] 0.026 | [6] -0.029 | [7] 0.038 | [8] -0.012 | [9] -0.105 | [10] 0.062 | [11] 0.094 | [12] -0.059 | [13] -0.287 | [14] 0.059 | [15] 0.144 | [16] -0.042 | [17] 0.108 | [18] -0.02 | [19] -0.118 | [20] -0.003

DNAJC12 (UniProt Q9UKB3)
inactive: [1] -0.061 | [2] -0.075 | [3] -0.04 | [4] 0.052 | [5] 0.024 | [6] -0.001 | [7] 0.056 | [8] 0.018 | [9] -0.066 | [10] 0.039 | [11] 0.045 | [12] 0.081 | [13] -0.017 | [14] 0.018 | [15] -0.021 | [16] -0.008 | [17] -0.017 | [18] -0.046 | [19] 0.023 | [20] -0.011

ECD isoform 3 (UniProt O95905)
inactive: [1] 0.038 | [2] -0.3 | [3] 0.056 | [4] 0.011 | [5] -0.072 | [6] -0.069 | [7] -0.033 | [8] 0.027 | [9] -0.081 | [10] -0.097 | [11] -0.075 | [12] -0.091 | [13] 0.097 | [14] -0.01 | [15] -0.039 | [16] -0.07 | [17] -0.016 | [18] 0.024 | [19] 0.044 | [20] 0.017

DRAP1 isoform 2 (UniProt Q14919)
inactive: [1] -0.005 | [2] 0.044 | [3] -0.015 | [4] -0.001 | [5] 0.01 | [6] -0.03 | [7] -0.051 | [8] 0 | [9] -0.063 | [10] -0.058 | [11] 0.023 | [12] 0.02 | [13] 0 | [14] -0.03 | [15] -0.02 | [16] -0.014 | [17] -0.072 | [18] -0.044 | [19] -0.04 | [20] 0.015

DNAJC21 isoform 3 (UniProt Q5F1R6)
inactive: [1] 0.085 | [2] -0.127 | [3] 0.051 | [4] -0.077 | [5] -0.029 | [6] -0.012 | [7] -0.035 | [8] 0.067 | [9] 0.044 | [10] 0.028 | [11] -0.005 | [12] -0.027 | [13] 0.061 | [14] 0.087 | [15] 0.024 | [16] 0.019 | [17] 0.202 | [18] 0.064 | [19] 0.092 | [20] -0.113

2 successive entries already listed, quoted:
ECD isoform 3 (UniProt O95905)
inactive: [1] 0.038 | [2] -0.3 | [3] 0.056 | [4] 0.011 | [5] -0.072 | [6] -0.069 | [7] -0.033 | [8] 0.027 | [9] -0.081 | [10] -0.097 | [11] -0.075 | [12] -0.091 | [13] 0.097 | [14] -0.01 | [15] -0.039 | [16] -0.07 | [17] -0.016 | [18] 0.024 | [19] 0.044 | [20] 0.017

DRAP1 isoform 2 (UniProt Q14919)
inactive: [1] -0.005 | [2] 0.044 | [3] -0.015 | [4] -0.001 | [5] 0.01 | [6] -0.03 | [7] -0.051 | [8] 0 | [9] -0.063 | [10] -0.058 | [11] 0.023 | [12] 0.02 | [13] 0 | [14] -0.03 | [15] -0.02 | [16] -0.014 | [17] -0.072 | [18] -0.044 | [19] -0.04 | [20] 0.015

(list continues)

DNPEP (UniProt Q9ULA0)
inactive: [1] 0.019 | [2] 0.059 | [3] -0.004 | [4] 0.027 | [5] 0.012 | [6] -0.021 | [7] -0.003 | [8] -0.004 | [9] -0.058 | [10] 0.017 | [11] 0.054 | [12] -0.044 | [13] -0.004 | [14] -0.035 | [15] -0.038 | [16] -0.019 | [17] -0.021 | [18] -0.011 | [19] -0.02 | [20] -0.011

DOCK11 (UniProt Q5JSL3)
inactive: [1] 0.016 | [2] -0.104 | [3] 0.051 | [4] -0.042 | [5] -0.058 | [6] -0.009 | [7] 0.041 | [8] 0.035 | [9] 0.052 | [10] -0.001 | [11] -0.058 | [12] -0.105 | [13] 0 | [14] 0.019 | [15] 0.049 | [16] -0.027 | [17] 0.074 | [18] 0.048 | [19] 0.083 | [20] -0.025

DNAJB11 (UniProt Q9UBS4)
inactive: [1] -0.027 | [2] 0.011 | [3] -0.036 | [4] -0.003 | [5] 0.008 | [6] 0.012 | [7] -0.001 | [8] -0.007 | [9] 0.003 | [10] -0.047 | [11] -0.018 | [12] 0.02 | [13] 0.074 | [14] -0.039 | [15] 0.005 | [16] 0.057 | [17] 0.027 | [18] -0.022 | [19] -0.038 | [20] 0.026

DPH3 (UniProt Q96FX2)
inactive: [1] 0.013 | [2] 0.17 | [3] -0.007 | [4] 0.11 | [5] 0.021 | [6] 0.25 | [7] -0.006 | [8] 0.056 | [9] -0.139 | [10] 0.093 | [11] 0.03 | [12] -0.048 | [13] -0.16 | [14] 0.027 | [15] 0.073 | [16] 0.019 | [17] -0.036 | [18] -0.126 | [19] -0.044 | [20] 0.193

DYNLRB1 (UniProt Q9NP97)
inactive: [1] 0.041 | [2] 0.056 | [3] -0.016 | [4] 0.045 | [5] 0.047 | [6] 0.092 | [7] 0.017 | [8] -0.024 | [9] -0.014 | [10] 0.007 | [11] -0.062 | [12] 0.056 | [13] -0.013 | [14] 0.018 | [15] 0.044 | [16] 0.006 | [17] 0.035 | [18] 0.002 | [19] -0.035 | [20] 0.066

DNAJC13 (UniProt O75165)
inactive: [1] -0.07 | [2] -0.322 | [3] 0.029 | [4] -0.026 | [5] -0.039 | [6] 0.033 | [7] 0.004 | [8] 0.028 | [9] 0.076 | [10] -0.084 | [11] 0.007 | [12] 0.023 | [13] -0.029 | [14] -0.006 | [15] -0.015 | [16] -0.087 | [17] 0.003 | [18] -0.008 | [19] 0.034 | [20] -0.057

DUSP23 (UniProt Q9BVJ7)
inactive: [1] 0.018 | [2] -0.024 | [3] 0.015 | [4] 0.099 | [5] 0.031 | [6] -0.033 | [7] 0.068 | [8] -0.024 | [9] -0.072 | [10] 0.178 | [11] 0.019 | [12] -0.02 | [13] -0.028 | [14] 0.042 | [15] -0.029 | [16] 0.071 | [17] 0.031 | [18] 0.01 | [19] -0.001 | [20] -0.059

DRG2 (UniProt P55039)
inactive: [1] 0.014 | [2] -0.083 | [3] 0.032 | [4] 0.011 | [5] 0.001 | [6] 0.012 | [7] 0.013 | [8] 0.022 | [9] -0.021 | [10] -0.034 | [11] 0.004 | [12] 0.003 | [13] -0.018 | [14] 0.002 | [15] 0.019 | [16] -0.017 | [17] -0.027 | [18] -0.021 | [19] 0.006 | [20] -0.016

EAF1 (UniProt Q96JC9)
inactive: [1] 0.084 | [2] 0.126 | [3] -0.107 | [4] 0.008 | [5] -0.03 | [6] 0.266 | [7] -0.008 | [8] -0.028 | [9] 0.018 | [10] -0.079 | [11] -0.062 | [12] -0.02 | [13] -0.056 | [14] 0.076 | [15] 0.009 | [16] -0.088 | [17] -0.095 | [18] -0.154 | [19] 0.021 | [20] 0.006
